Consider one substance from article doi:10.1101/2021.09.07.459348.

Chains of the proteins cited; added tags and fusions are not shown.
UniProt Q14494: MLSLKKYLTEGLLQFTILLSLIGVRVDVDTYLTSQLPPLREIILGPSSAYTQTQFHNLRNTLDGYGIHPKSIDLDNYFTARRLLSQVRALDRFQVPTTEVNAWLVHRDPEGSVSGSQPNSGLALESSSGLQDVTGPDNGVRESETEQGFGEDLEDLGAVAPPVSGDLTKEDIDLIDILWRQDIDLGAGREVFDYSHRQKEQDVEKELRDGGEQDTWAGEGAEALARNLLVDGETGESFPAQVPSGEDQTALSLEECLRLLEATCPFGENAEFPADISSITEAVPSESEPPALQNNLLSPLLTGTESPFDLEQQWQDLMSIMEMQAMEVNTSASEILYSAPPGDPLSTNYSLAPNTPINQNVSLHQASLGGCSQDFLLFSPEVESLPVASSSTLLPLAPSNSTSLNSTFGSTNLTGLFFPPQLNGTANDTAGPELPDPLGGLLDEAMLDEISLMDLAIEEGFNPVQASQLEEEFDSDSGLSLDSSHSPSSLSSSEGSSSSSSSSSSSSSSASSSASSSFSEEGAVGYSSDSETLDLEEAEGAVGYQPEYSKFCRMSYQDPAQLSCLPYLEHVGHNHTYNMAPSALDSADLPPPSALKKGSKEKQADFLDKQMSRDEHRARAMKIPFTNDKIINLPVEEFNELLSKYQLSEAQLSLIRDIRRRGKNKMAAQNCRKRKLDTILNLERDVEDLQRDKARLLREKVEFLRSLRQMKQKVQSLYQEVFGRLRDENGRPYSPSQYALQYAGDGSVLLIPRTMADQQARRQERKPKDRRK

These are yes or no findings as the source states them, for the method shown. In cells and extracts the contact can be indirect.

The experiment has as its target T1, serine/threonine kinase 11 (STK11/LKB1) (human (endogenous in HEK293T)) (UniProt Q15831).
T1 sequence: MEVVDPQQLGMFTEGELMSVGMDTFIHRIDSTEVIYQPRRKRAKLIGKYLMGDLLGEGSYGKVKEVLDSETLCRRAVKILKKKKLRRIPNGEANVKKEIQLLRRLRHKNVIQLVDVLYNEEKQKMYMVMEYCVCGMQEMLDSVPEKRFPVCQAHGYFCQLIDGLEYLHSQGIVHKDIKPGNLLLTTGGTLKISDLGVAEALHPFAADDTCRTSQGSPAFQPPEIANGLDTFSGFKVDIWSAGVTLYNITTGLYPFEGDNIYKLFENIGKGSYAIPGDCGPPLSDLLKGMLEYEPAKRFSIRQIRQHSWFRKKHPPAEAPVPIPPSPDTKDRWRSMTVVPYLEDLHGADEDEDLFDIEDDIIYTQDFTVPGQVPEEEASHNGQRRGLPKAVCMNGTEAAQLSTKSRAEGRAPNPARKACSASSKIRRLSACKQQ
Briefly: co-IP.

For “Nuclear factor erythroid 2 like 1 (NFE2L1/Nrf1) (from UniProt Q14494 1-772)”, the binding result is “no binding”.
